Source: the supplement of paper PMC6411743
± gives the standard deviation of the averaged measurements. This is one part of the list.

Amino acid sequences for entries named in this document (tags omitted). A change or cut given only in a name is not applied to a line headed by its entry.
UniProt Q9P1Z2: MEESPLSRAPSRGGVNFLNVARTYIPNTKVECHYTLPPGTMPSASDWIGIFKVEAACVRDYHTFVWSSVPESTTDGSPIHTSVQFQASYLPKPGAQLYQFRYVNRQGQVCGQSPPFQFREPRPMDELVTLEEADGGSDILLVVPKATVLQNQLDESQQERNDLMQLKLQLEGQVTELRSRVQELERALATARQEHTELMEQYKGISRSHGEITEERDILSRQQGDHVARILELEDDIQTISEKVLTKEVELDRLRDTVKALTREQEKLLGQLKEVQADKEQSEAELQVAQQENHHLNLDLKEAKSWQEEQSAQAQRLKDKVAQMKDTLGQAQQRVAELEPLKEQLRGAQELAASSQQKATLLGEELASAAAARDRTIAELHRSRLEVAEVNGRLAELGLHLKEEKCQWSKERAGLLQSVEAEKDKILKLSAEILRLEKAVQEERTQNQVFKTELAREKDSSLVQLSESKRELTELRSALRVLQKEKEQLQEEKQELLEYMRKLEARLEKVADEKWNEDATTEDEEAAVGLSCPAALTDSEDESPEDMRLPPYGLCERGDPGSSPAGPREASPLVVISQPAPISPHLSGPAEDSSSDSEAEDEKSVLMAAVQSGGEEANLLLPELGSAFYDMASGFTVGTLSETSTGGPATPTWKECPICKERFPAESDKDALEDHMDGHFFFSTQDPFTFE
UniProt Q9P2W1: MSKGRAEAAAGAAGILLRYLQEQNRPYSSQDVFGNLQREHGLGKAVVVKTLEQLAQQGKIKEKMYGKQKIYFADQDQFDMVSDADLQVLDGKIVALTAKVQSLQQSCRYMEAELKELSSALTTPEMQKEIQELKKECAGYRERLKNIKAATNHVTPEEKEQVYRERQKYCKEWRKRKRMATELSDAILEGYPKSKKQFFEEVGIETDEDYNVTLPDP
UniProt Q9UHQ9: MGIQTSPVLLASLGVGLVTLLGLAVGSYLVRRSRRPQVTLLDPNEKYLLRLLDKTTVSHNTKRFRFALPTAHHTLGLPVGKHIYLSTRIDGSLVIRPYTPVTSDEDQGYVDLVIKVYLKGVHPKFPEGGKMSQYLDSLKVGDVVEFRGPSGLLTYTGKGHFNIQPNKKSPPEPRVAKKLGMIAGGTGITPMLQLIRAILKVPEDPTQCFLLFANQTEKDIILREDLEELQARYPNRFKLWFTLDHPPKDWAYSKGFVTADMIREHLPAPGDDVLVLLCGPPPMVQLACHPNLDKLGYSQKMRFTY
UniProt Q9UJW0, whole entry: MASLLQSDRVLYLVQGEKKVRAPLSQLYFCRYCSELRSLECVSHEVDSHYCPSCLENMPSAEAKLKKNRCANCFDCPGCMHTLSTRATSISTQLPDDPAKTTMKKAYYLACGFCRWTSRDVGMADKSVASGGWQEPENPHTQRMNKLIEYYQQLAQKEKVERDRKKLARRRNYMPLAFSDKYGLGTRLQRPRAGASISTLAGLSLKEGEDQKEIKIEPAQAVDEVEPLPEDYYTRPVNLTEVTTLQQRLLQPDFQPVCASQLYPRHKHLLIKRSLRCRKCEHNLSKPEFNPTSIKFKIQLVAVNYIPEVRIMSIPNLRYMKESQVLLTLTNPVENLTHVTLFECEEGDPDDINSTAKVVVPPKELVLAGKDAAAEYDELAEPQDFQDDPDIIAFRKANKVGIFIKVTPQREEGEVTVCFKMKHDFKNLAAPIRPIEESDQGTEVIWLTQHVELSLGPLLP
UniProt Q9NVV4: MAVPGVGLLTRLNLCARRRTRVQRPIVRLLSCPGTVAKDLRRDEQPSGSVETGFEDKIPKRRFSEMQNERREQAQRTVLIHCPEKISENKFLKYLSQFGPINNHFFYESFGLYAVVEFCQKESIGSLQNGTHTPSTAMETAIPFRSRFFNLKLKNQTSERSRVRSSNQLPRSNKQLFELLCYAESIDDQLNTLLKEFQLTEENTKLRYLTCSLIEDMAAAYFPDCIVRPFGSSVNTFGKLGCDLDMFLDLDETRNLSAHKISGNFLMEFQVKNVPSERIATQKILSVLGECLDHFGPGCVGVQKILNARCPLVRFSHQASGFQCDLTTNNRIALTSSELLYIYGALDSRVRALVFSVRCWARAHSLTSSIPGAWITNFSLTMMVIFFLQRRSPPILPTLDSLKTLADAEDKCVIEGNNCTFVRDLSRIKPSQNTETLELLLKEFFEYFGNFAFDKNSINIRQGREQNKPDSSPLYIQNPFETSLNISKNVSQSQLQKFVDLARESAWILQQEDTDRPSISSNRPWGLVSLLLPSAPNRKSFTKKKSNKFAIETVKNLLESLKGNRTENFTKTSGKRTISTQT
UniProt Q9P2A4: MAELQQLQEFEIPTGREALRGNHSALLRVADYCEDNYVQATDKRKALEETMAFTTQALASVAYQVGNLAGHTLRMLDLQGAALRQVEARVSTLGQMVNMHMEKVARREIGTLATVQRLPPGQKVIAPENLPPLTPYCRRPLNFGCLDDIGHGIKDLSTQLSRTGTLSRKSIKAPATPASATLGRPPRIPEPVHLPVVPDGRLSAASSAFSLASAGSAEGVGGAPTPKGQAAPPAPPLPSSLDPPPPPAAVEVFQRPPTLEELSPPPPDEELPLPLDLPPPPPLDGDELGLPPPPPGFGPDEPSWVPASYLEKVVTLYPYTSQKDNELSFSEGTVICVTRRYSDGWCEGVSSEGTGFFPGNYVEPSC
UniProt Q9ULW0, whole entry: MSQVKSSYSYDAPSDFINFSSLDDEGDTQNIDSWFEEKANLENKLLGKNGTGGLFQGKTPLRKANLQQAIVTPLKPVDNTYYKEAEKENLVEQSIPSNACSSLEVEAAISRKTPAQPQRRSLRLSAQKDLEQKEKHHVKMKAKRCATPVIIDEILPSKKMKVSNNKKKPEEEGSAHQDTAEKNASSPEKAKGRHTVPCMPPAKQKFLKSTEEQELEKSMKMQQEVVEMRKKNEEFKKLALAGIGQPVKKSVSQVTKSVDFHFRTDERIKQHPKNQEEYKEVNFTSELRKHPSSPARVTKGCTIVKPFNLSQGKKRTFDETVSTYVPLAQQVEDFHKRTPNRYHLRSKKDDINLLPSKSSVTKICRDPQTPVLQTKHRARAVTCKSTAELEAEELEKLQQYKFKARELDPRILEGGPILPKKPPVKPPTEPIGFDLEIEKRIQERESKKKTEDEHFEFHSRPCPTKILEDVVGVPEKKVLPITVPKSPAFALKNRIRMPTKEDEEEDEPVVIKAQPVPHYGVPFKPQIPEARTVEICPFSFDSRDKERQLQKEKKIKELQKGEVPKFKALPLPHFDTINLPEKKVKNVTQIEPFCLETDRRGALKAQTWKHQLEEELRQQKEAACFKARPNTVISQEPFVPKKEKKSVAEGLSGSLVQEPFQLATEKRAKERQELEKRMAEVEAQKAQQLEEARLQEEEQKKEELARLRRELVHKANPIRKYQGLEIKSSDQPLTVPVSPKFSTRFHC
UniProt Q9UHD8: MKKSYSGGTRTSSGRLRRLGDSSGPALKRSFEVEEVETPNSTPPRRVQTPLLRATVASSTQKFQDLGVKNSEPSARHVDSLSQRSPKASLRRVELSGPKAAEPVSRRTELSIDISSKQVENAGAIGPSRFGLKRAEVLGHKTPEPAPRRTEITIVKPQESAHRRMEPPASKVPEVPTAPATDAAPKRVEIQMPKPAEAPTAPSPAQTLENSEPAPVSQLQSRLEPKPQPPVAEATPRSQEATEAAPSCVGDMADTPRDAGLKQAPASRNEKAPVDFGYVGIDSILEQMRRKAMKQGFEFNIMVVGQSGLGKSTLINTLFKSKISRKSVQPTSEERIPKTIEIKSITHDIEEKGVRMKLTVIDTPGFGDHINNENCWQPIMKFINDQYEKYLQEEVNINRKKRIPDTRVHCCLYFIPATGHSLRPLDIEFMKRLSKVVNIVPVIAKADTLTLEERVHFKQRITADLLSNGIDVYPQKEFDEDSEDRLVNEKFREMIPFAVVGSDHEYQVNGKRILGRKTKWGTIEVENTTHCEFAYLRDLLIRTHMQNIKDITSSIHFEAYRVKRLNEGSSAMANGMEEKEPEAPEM
UniProt Q9P2Y5: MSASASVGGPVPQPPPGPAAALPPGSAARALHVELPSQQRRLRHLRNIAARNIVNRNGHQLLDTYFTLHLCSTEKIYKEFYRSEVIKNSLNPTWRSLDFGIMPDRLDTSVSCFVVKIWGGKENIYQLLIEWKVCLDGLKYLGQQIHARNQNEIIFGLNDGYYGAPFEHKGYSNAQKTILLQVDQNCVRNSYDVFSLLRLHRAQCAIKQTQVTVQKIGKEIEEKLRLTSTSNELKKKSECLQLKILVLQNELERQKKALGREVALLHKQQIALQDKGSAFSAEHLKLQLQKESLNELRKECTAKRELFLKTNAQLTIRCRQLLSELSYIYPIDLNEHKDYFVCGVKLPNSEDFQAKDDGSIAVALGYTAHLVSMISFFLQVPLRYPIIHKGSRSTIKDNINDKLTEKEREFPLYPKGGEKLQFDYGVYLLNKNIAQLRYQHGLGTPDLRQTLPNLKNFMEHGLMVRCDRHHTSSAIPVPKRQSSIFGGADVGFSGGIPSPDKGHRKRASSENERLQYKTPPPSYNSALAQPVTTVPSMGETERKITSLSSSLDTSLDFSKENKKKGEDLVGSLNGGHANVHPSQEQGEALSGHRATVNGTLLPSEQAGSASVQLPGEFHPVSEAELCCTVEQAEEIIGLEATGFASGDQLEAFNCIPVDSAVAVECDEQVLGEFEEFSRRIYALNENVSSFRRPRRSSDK
UniProt Q9ULX3: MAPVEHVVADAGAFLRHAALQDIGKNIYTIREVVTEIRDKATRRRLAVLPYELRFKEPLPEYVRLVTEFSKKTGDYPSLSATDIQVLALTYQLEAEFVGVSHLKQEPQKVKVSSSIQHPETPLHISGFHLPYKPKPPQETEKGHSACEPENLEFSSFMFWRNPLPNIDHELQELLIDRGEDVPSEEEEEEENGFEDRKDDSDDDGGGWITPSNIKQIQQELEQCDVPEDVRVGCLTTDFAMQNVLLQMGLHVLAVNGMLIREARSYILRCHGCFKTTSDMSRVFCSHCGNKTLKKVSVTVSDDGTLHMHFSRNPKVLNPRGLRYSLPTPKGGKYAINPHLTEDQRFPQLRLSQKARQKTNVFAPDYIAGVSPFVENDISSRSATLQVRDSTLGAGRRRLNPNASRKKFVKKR
UniProt Q9UHB7: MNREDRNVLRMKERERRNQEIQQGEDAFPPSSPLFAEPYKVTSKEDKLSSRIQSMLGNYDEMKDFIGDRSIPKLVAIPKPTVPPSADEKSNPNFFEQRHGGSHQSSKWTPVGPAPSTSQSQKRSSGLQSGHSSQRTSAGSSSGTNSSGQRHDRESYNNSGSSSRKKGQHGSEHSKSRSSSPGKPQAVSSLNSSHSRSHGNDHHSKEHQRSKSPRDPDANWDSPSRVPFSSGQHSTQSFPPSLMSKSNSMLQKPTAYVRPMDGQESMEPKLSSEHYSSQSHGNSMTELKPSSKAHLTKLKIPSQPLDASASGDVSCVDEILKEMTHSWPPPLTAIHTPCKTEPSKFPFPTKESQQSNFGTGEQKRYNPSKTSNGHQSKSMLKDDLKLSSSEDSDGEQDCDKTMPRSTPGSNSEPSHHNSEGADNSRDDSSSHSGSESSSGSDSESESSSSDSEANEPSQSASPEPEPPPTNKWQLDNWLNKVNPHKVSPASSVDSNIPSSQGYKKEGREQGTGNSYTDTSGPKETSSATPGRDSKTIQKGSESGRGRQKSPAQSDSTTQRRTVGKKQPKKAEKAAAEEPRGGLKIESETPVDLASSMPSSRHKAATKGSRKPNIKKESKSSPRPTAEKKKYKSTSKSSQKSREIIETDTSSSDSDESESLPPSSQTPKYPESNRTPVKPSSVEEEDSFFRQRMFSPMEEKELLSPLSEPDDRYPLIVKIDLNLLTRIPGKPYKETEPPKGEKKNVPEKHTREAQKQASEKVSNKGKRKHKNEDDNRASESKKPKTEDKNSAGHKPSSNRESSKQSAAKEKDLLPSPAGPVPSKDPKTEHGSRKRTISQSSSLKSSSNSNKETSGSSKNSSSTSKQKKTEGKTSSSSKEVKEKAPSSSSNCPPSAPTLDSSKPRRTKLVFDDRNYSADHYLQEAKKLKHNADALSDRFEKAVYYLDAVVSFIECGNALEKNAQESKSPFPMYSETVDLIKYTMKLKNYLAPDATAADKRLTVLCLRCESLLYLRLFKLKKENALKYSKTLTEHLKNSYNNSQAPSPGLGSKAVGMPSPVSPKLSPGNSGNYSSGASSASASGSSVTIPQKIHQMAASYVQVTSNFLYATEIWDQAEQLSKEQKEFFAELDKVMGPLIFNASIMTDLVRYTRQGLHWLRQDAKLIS
UniProt Q9UHD1: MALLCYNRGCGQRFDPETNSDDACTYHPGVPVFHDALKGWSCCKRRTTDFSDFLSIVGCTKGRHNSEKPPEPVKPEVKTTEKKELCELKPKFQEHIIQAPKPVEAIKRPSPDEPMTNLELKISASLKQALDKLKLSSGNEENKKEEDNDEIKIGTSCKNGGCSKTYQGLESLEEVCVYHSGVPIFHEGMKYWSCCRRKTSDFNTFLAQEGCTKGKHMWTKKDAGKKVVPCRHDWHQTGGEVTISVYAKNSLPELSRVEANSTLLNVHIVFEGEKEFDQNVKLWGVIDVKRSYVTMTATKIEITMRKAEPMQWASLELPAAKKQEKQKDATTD

Compound: Nc1nc2c(ncn2[C@@H]2O[C@H](COP(=O)(O)OP(=O)(O)OP(=O)(O)O)[C@@H](O)[C@H]2O)c(=O)[nH]1 [guanosine triphosphate]
Test: NP40-soluble protein abundance relative to vehicle (solubility fold change) (ratio); higher = more soluble protein in presence of GTP
How it was run: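 Jurkat crude lysate prepared with a Dounce homogeniser was treated at eight concentrations spanning 0.1 to 10 mM, 10 min at room temperature then 3 min at 37 °C. Solubilisation with 0.8% NP40 and benzonase and ultracentrifugation preceded TMT labelling of the supernatant for LC-MS/MS. Fold change against the detergent-processed vehicle was determined per replicate from vsn-normalised intensities, across three independent experiments.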

Target	NP40-soluble protein abundance (concentration: 0.1mM)	NP40-soluble protein abundance (concentration: 0.5mM)	NP40-soluble protein abundance (concentration: 1mM)	NP40-soluble protein abundance (concentration: 2mM)	NP40-soluble protein abundance (concentration: 4mM)	NP40-soluble protein abundance (concentration: 6mM)	NP40-soluble protein abundance (concentration: 8mM)	NP40-soluble protein abundance (concentration: 10mM)
UniProt Q9P1Z2 and related entries	0.975 ± 0.09	0.932 ± 0.1	0.964 ± 0.087	0.925 ± 0.16	0.937 ± 0.14	0.935 ± 0.12	0.932 ± 0.017	0.944 ± 0.12
PPP4R2 (UniProt Q9NY27)	0.942 ± 0.048	0.949 ± 0.059	0.966 ± 0.051	0.946 ± 0.052	0.955 ± 0.073	0.934 ± 0.045	0.964 ± 0.032	0.96 ± 0.046
ZNFX1 (UniProt Q9P2E3)	1.09 ± 0.075	1.137 ± 0.0073	1.15 ± 0.018	1.1 ± 0.13	1.06 ± 0.041	1.13 ± 0.014	1.15 ± 0.012	1.05 ± 0.096
UniProt Q9P2W1 and related entries	0.896 ± 0.054	0.863 ± 0.084	0.987 ± 0.024	0.995 ± 0.062	1.02 ± 0.051	0.969 ± 0.081	0.962 ± 0.08	1.04 ± 0.017
CISD1 (UniProt Q9NZ45)	0.841 ± 0.055	0.817 ± 0.043	0.987 ± 0.049	0.959 ± 0.033	0.953 ± 0.085	0.934 ± 0.039	0.919 ± 0.17	0.918 ± 0.015
CYB5R1 (UniProt Q9UHQ9)	0.993 ± 0.029	1.07 ± 0.053	0.92 ± 0.051	0.934 ± 0.083	0.869 ± 0.09	0.877 ± 0.067	0.853 ± 0.072	0.872 ± 0.086
UniProt Q9UJW0 and related entries	1.08 ± 0.011	1.05 ± 0.049	1.06 ± 0.073	1.1 ± 0.12	1.14 ± 0.15	1.11 ± 0.16	1.14 ± 0.16	1.06 ± 0.14
MTPAP (UniProt Q9NVV4)	1.04 ± 0.043	0.972 ± 0.1	1.07 ± 0.095	1.18 ± 0.077	1.33 ± 0.062	1.42 ± 0.055	1.55 ± 0.02	1.554 ± 0.012
UniProt Q9NUQ9 and related entries	0.902 ± 0.041	0.905 ± 0.062	0.909 ± 0.087	0.886 ± 0.095	0.849 ± 0.11	0.866 ± 0.098	0.831 ± 0.1	0.858 ± 0.087
UniProt Q9UKZ1	1.52 ± 0.81	1.19 ± 0.11	1.4 ± 0.41	2.81 ± 2.7	1.26 ± 0.14	1.24 ± 0.11	1.29 ± 0.15	1.36 ± 0.051
UniProt Q9NX55	1 ± 0.095	0.977 ± 0.11	1.02 ± 0.091	0.995 ± 0.073	1 ± 0.097	1.04 ± 0.081	1.11 ± 0.098	1.08 ± 0.017
UniProt Q9P2A4 and related entries	0.995 ± 0.054	1.03 ± 0.037	0.999 ± 0.077	0.999 ± 0.025	1.02 ± 0.045	1.05 ± 0.067	0.96 ± 0.11	1.06 ± 0.036
UniProt Q9P0K8 and related entries	0.907 ± 0.056	0.873 ± 0.053	0.931 ± 0.067	0.884 ± 0.053	0.887 ± 0.14	0.869 ± 0.077	0.901 ± 0.17	0.783 ± 0.15
COMMD9 (UniProt Q9P000)	0.897 ± 0.078	0.905 ± 0.087	0.947 ± 0.069	0.96 ± 0.057	0.98 ± 0.093	0.964 ± 0.1	0.927 ± 0.044	0.994 ± 0.12
CCDC59 (UniProt Q9P031)	1.06 ± 0.1	0.924 ± 0.012	1.07 ± 0.035	1.08 ± 0.016	1.08 ± 0.037	0.986 ± 0.048	1.02 ± 0.056	1.06 ± 0.052
TPX2 (UniProt Q9ULW0)	1.01 ± 0.024	1.03 ± 0.053	1.14 ± 0.042	1.21 ± 0.094	1.33 ± 0.066	1.35 ± 0.081	1.45 ± 0.12	1.46 ± 0.13
UniProt Q9UKU0-9	1.04 ± 0.065	1.02 ± 0.028	1.04 ± 0.097	1.03 ± 0.035	1.05 ± 0.14	1.01 ± 0.055	1.02 ± 0.075	1.1 ± 0.098
UniProt Q9NWY4	1 ± 0.026	1 ± 0.011	0.962 ± 0.048	0.944 ± 0.036	0.938 ± 0.078	0.916 ± 0.056	0.938 ± 0.066	0.885 ± 0.081
UniProt Q9UHD8 and related entries	0.974 ± 0.026	1.021 ± 0.0087	0.9813 ± 0.0091	0.967 ± 0.013	0.957 ± 0.014	0.966 ± 0.019	0.962 ± 0.011	0.944 ± 0.02
UVRAG (UniProt Q9P2Y5)	1.015 ± 0.0045	1.087 ± 0.0022	0.995 ± 0.021	1.06 ± 0.06	0.998 ± 0.033	1 ± 0.059	0.997 ± 0.023	0.998 ± 0.045
NOB1 (UniProt Q9ULX3)	1.02 ± 0.029	1.04 ± 0.046	1.07 ± 0.1	1.08 ± 0.11	1.08 ± 0.11	1.03 ± 0.11	1.05 ± 0.16	1.02 ± 0.15
AFF4 (UniProt Q9UHB7)	1.05 ± 0.035	1 ± 0.026	1.026 ± 0.007	1.06 ± 0.013	1.07 ± 0.056	1.05 ± 0.059	1.09 ± 0.075	1.08 ± 0.08
UniProt Q9ULJ3 and related entries	1.05 ± 0.089	1.02 ± 0.092	1.04 ± 0.09	1.01 ± 0.11	0.942 ± 0.086	0.981 ± 0.12	1 ± 0.12	0.928 ± 0.079
UniProt Q9P260 and related entries	0.984 ± 0.054	0.9732 ± 0.0063	1.04 ± 0.021	0.981 ± 0.034	1.05 ± 0.072	1.03 ± 0.012	1.042 ± 0.0015	0.942 ± 0.032
UniProt Q9UKJ3 and related entries	1.02 ± 0.025	1.11 ± 0.058	1.19 ± 0.045	1.03 ± 0.075	0.978 ± 0.066	0.945 ± 0.073	1.03 ± 0.12	0.924 ± 0.1
CCDC88C (UniProt Q9P219)	1.02 ± 0.018	0.991 ± 0.025	1 ± 0.067	0.972 ± 0.068	0.932 ± 0.079	0.942 ± 0.046	0.964 ± 0.028	0.941 ± 0.062
MPP6 (UniProt Q9NZW5)	1.05 ± 0.033	1.04 ± 0.031	0.9523 ± 0.0041	0.946 ± 0.022	0.974 ± 0.036	0.933 ± 0.033	0.938 ± 0.02	0.902 ± 0.08
CHORDC1 (UniProt Q9UHD1)	0.949 ± 0.03	0.981 ± 0.017	0.954 ± 0.045	0.92 ± 0.043	0.892 ± 0.048	0.927 ± 0.024	0.908 ± 0.052	0.893 ± 0.041

A different layout for part of the listing above:
Target,NP40-soluble protein abundance (concentration: 0.1mM),NP40-soluble protein abundance (concentration: 0.5mM),NP40-soluble protein abundance (concentration: 1mM),NP40-soluble protein abundance (concentration: 2mM),NP40-soluble protein abundance (concentration: 4mM),NP40-soluble protein abundance (concentration: 6mM),NP40-soluble protein abundance (concentration: 8mM),NP40-soluble protein abundance (concentration: 10mM)
UniProt Q9NWY4,1 ± 0.026,1 ± 0.011,0.962 ± 0.048,0.944 ± 0.036,0.938 ± 0.078,0.916 ± 0.056,0.938 ± 0.066,0.885 ± 0.081
UniProt Q9UHD8 and related entries,0.974 ± 0.026,1.021 ± 0.0087,0.9813 ± 0.0091,0.967 ± 0.013,0.957 ± 0.014,0.966 ± 0.019,0.962 ± 0.011,0.944 ± 0.02
